Experimental data reported in the supplement of paper PMC10011410.
± gives the standard deviation of the averaged measurements. These are raw signals, not scaled to a control.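 Every value is the mean of three technical replicates on separate plates. Each plate had reagent-free control wells to correct for cellular autofluorescence, plus DMSO-treated vehicle control wells. These live-cell readings have no defined active or hit threshold.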

Tests used:
U-2 OS [1] = assay: AUC of caspase 3/7-positive object count (AUC (object count x time)); higher = more apoptotic or dead cells
Method: (§1)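 Live-cell Incucyte imaging of U-2 OS cells with Caspase-3/7 Green and Cytotox Red reagents. Compounds were tested mostly at 5, 10 and 20 uM, and cells were imaged every 4 h for up to 60 h. Value is the area under the curve of positive object counts over time, per channel: green = caspase 3/7, red = membrane-compromised, overlap = both.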

U-2 OS [2] = assay: AUC of Cytotox red (membrane-compromised) object count (AUC (object count x time)); higher = more apoptotic or dead cells
Method: as §1

SMILES | AUC of caspase 3/7-positive object count (U-2 OS [1]; 5 µM) | AUC of caspase 3/7-positive object count (U-2 OS [1]; 10 µM) | AUC of caspase 3/7-positive object count (U-2 OS [1]; 20 µM) | AUC of Cytotox red (U-2 OS [2]; 5 µM) | AUC of Cytotox red (U-2 OS [2]; 10 µM) | AUC of Cytotox red (U-2 OS [2]; 20 µM) | AUC of caspase 3/7-positive object count (U-2 OS [1]; 0.625 µM) | AUC of caspase 3/7-positive object count (U-2 OS [1]; 1.25 µM) | AUC of caspase 3/7-positive object count (U-2 OS [1]; 2.5 µM) | AUC of Cytotox red (U-2 OS [2]; 0.625 µM) | AUC of Cytotox red (U-2 OS [2]; 1.25 µM) | AUC of Cytotox red (U-2 OS [2]; 2.5 µM)
Cc1cc(-c2ccccc2)cc(C(=O)NNS(=O)(=O)c2ccccc2)c1F | 55.7 | 47.5 | 48.2 | 32.1 | 32.3 | 30.6 |  |  |  |  |  | 
Oc1ccc(/C=C\c2cc(O)cc(O)c2)cc1 | 46.5 | 36.6 | 21.6 | 27 | 41.3 | 32.5 |  |  |  |  |  | 
COc1cc2ncnc(Nc3ccc(F)c(Cl)c3)c2cc1NC(=O)/C=C/CN1CCCCC1 | 253 | 593 | 751 | 206 | 607 | 1150 |  |  |  |  |  | 
C[C@@H]1C[C@H]2O[C@@H]2/C=C\C=C\C(=O)Cc2c(Cl)c(O)cc(O)c2C(=O)O1 | 414 | 353 | 57.4 | 288 | 299 | 83.8 | 58.5 | 42 | 31 | 59.4 | 48.7 | 40.4
O=C(CCCCCCC(=O)Nc1ccccc1)NO | 762 | 771 | 861 | 541 | 557 | 575 |  |  |  |  |  | 
O=S1(=O)C=C(Sc2nn(-c3ccccc3)c(=S)s2)c2ccccc21 | 929 | 734 | 432 | 971 | 831 | 641 |  |  |  |  |  | 
O=C1C(NCCN2CCOCC2)=C(Cl)C(=O)c2ncccc21 | 682 | 654 | 714 | 1060 | 1100 | 810 |  |  |  |  |  | 
CNC(=O)Nc1ccc2c(c1)CC[C@@]21OC(=O)N(CC(=O)N(Cc2ccc(F)cc2)[C@@H](C)C(F)(F)F)C1=O | 43.2 | 54.3 | 60.4 | 31.5 | 33 | 42 |  |  |  |  |  | 
CCC(=O)CCCCC[C@@H]1NC(=O)[C@H]2CCCCN2C(=O)[C@H]([C@@H](C)CC)NC(=O)[C@H](Cc2cn(OC)c3ccccc23)NC1=O | 1100 | 1210 | 1150 | 932 | 867 | 541 |  |  |  |  |  | 
CC(C)(C)C(=O)OCOc1cccc2c1C(=O)C1C3C=CC(CC3)C1C2=O (configuration not stated) | 58.8 | 230 | 520 | 47.2 | 176 | 341 |  |  |  |  |  | 
CNc1nc(-c2ccccc2)[n+](-c2ccccc2)s1 | 25.9 | 22.8 | 31.5 | 40.4 | 46.2 | 50.8 |  |  |  |  |  | 
Nc1c[n+](N2CCOCC2)no1.[Cl-] | 36.9 | 27.1 | 27.3 | 39.4 | 42.2 | 33 |  |  |  |  |  | 
O=C1CC(Nc2ccccc2)C(=O)N1Cc1ccccc1 (configuration not stated) | 44.2 | 34.6 | 29.2 | 42.1 | 37 | 35 |  |  |  |  |  | 
C[C@@H]1C[C@@H]([C@H](O)CC2CC(=O)NC(=O)C2)C(=O)[C@@H](C)C1 | 56.3 | 95.9 | 207 | 97.3 | 131 | 193 |  |  |  |  |  | 
Oc1ccc(/C=C/c2cc(O)cc(O)c2)cc1 | 39 | 53.2 | 31.7 | 21.3 | 41.3 | 33.6 |  |  |  |  |  | 
O=C(O)CSc1cc(NS(=O)(=O)c2ccc(Br)cc2)c2ccccc2c1O | 49 | 77.9 | 802 | 48.5 | 49.8 | 566 |  |  |  |  |  | 
CCN(CCO)CCCOc1ccc2c(Nc3cc(CC(=O)Nc4cccc(F)c4)[nH]n3)ncnc2c1 | 115 | 98.3 | 86.9 | 75.5 | 54.6 | 52.8 |  |  |  |  |  | 
COc1ccc(N2C(=O)CC(Sc3nnc(-c4ccccc4)o3)C2=O)cc1 (configuration not stated) | 102 | 471 | 761 | 143 | 1470 | 1760 |  |  |  |  |  | 
CCCCc1c(-c2ccc(OC)cc2)[nH]c2nccnc12 | 80 | 67.6 | 132 | 62.1 | 76.9 | 483 |  |  |  |  |  | 
COc1ccc(N(C(=O)CCl)C(C(=O)NCCc2ccccc2)c2cccs2)cc1Cl (configuration not stated) | 665 | 833 | 890 | 1910 | 2150 | 1840 |  |  |  |  |  | 
COc1cc2c(c(OC)c1OC)-c1ccc(OC)c(=O)cc1[C@@H](NC(C)=O)CC2 | 629 | 596 | 613 ± 30 | 574 | 497 | 509 ± 18 | 581 | 654 | 605 | 585 | 622 | 547
CC1(C)[C@@H](O[C@H]2O[C@H](C(=O)O)[C@@H](O)[C@H](O)[C@H]2O[C@@H]2O[C@H](C(=O)O)[C@@H](O)[C@H](O)[C@H]2O)CC[C@]2(C)[C@H]3C(=O)C=C4[C@@H]5C[C@@](C)(C(=O)O)CC[C@]5(C)CC[C@@]4(C)[C@]3(C)CC[C@@H]12.N | 22.2 | 24.3 | 7.7 | 24.8 | 27.5 | 16.2 |  |  |  |  |  | 
O=S1(=O)CCc2ccccc21 | 50 | 59.5 | 60.2 | 37.4 | 40.8 | 27.5 |  |  |  |  |  | 
CC(C)(N=NC(C)(C)C(=N)N)C(=N)N.Cl.Cl | 29 | 31.8 | 30.8 | 35.5 | 41.6 | 42.7 |  |  |  |  |  | 
C[C@@H]1Cc2c(Cl)cc(C(=O)N[C@@H](Cc3ccccc3)C(=O)O)c(O)c2C(=O)O1 | 137 | 186 | 324 | 97.6 | 143 | 268 |  |  |  |  |  | 

3 structures out of the list, sorted by length of the SMILES, high to low:
SMILES | AUC of caspase 3/7-positive object count (U-2 OS [1]; 5 µM) | AUC of caspase 3/7-positive object count (U-2 OS [1]; 10 µM) | AUC of caspase 3/7-positive object count (U-2 OS [1]; 20 µM) | AUC of Cytotox red (U-2 OS [2]; 5 µM) | AUC of Cytotox red (U-2 OS [2]; 10 µM) | AUC of Cytotox red (U-2 OS [2]; 20 µM) | AUC of caspase 3/7-positive object count (U-2 OS [1]; 0.625 µM) | AUC of caspase 3/7-positive object count (U-2 OS [1]; 1.25 µM) | AUC of caspase 3/7-positive object count (U-2 OS [1]; 2.5 µM) | AUC of Cytotox red (U-2 OS [2]; 0.625 µM) | AUC of Cytotox red (U-2 OS [2]; 1.25 µM) | AUC of Cytotox red (U-2 OS [2]; 2.5 µM)
CNC(=O)Nc1ccc2c(c1)CC[C@@]21OC(=O)N(CC(=O)N(Cc2ccc(F)cc2)[C@@H](C)C(F)(F)F)C1=O | 43.2 | 54.3 | 60.4 | 31.5 | 33 | 42 |  |  |  |  |  | 
O=S1(=O)C=C(Sc2nn(-c3ccccc3)c(=S)s2)c2ccccc21 | 929 | 734 | 432 | 971 | 831 | 641 |  |  |  |  |  | 
O=S1(=O)CCc2ccccc21 | 50 | 59.5 | 60.2 | 37.4 | 40.8 | 27.5 |  |  |  |  |  | 
